In the data set the test system is CLL samples compared to a panel of normal tissues. Briefly: Identification and label-free relative LC-MS quantitation of HLA-presented peptides (presentation profile / presentation score). To be noted: over-presentation on tumors (CLL) compared to a panel of normal tissues; label-free LC-MS quantitation. Set-up: species or system human; key: very highly over-presented on tumors compared to a panel of normal tissues (+++); highly over-presented on tumors compared to a panel of normal tissues (++); over-presented on tumors compared to a panel of normal tissues (+).

Regarding “62 (GIIDGSPRL; listed as Homo sapiens) [compound 62]”, the “Peptide Presentation (presentation score)” value is recorded as “+”. The result for “153 (SLLAELHVL; listed as Homo sapiens) [compound 153]” reads “++”.

(Values after patent US11260115B1, “Peptides and combination of peptides for use in immunotherapy against CLL and other cancers” (immatics biotechnologies GmbH, priority 2015, dated 2022).)
